Assay results published in PubChem BioAssay AID1508600 (Functional Genomics Laboratory (NCATS/FGL), 2020).
About 3,700 (7%) of roughly 53,000 sequences were called active.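 How the source made its calls: active means gene knockdowns whose robust z-score for IL-1 alpha signal is at least 2 or at most -2, so actives lie on both sides; inactive means the rest.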 This is one part of the list.

test: Components of the Cytosolic LPS Sensing Pathway: Gene Identification via Genome-wide siRNA Screen; conditions: RAW264.7 macrophages, IL-1a HTRF, actives lie on both sides, screened at 100 nM (by protocol), cells primed 5 h with Pam3CSK4 first;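 further: robust z of the log signal after scaling to non-targeting control siRNA wells of the plate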
Outline: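 Using IL-1a HTRF as read-out, the screen measured release from RAW264.7 cells after 48h siRNA knockdown (100 nM), 5 h Pam3CSK4 priming and 24 h cytosolic LipidA. Values were expressed relative to negative-control wells as robust z-scores.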

Row | Sequence | z-score
1 | GGUUGAAGAAUAGAAUGUCTT against Cda | inactive: -1.66
2 | GCUGGUUUUUGUCAUAAACTT against Olfr1316 | inactive: -0.825
3 | GGAUGCUAAUUUAUGUGCUTT against Senp7 | inactive: 1.33
4 | CGAUGGCUCUACCAAAGGCTT against Urod | inactive: 0.358
5 | CCUGAUAUACAAUCUAACCTT against Fv4 | inactive: 1.89
6 | GGUAUCGUAUAUGGAGAUCTT against Kif13a | active: 2.12
7 | CGGCAACCACAAUAUCAAUTT against Mill1 | inactive: 1.15
8 | GGAUCGAAUCAGGAAUGAATT against Nphs1 | inactive: 1.39
9 | GGAAGAAAGAAGAAGAGACTT against Lig1 | inactive: -0.533
10 | GCGUCUCAUAGAGUUGGUGTT against Mblac2 | inactive: 0.0617
11 | GGGCCAGUACCAGAAAGAATT against Xcl1 | inactive: -0.0888
12 | GCCCAUGUGACGAUAACUGTT against Ociad1 | inactive: 0.892
13 | GGGAGGAUUCAUGUUGUGUTT against Morc1 | inactive: 1.19
14 | CCGAUUUGAUACCCUGGAATT against Tfpi | inactive: -0.695
15 | GGGCGAGCAGUUUGUGUUUTT against Crybb2 | inactive: 1.58
16 | CCUUUAACCCUCAACUCAATT against Selenos | inactive: -0.251
17 | CCUGAAAGUUCAAAUGUCATT against Ankrd12 | inactive: 0.467
18 | GGAGAACUCUUUCAGAUUCTT against Stk36 | inactive: 0.957
19 | CCCUGACCGUUUGCUAUAUTT against LOC574530 | inactive: 0.6
20 | CCGCUACCUCUCGCUAUAUTT against Gpr12 | inactive: -0.363
21 | GUAAUCUGUCUUUCGUUGATT against Olfr957 | inactive: 0.68
22 | GGAAAAGCAAGAGGAAAGATT against Ifnb1 | active: 2.39

Row | Sequence | z-score
23 | GGAAAAGUUCUUAAAGCUGTT against Tmem67 | inactive: -0.723
24 | GGAGAAAGGAUUGUGUUUGTT against Clec10a | active: 2.2
25 | GCAGAUCGUGCGGAUCUUGTT against Bcdin3d | active: 2.1
26 | CCCGUGCUUCAAAUAGAGATT against Cavin3 | inactive: 0.789
27 | CCAAAUUACUAGGUUAAAGTT against Rasgrp3 | inactive: -0.15
28 | GGAAAAUCCCUGUGUCCGATT against Spdye4a | inactive: -1.34
29 | GGAAUUUUUUCAUACCACUTT against Wipf1 | inactive: 0.738
30 | GCGUAAAAUUUGGUGCAACTT against Cfap20dc | inactive: 1.15
31 | GGUGGACAAUCUGGUCAACTT against Mgat5 | inactive: 1.41
32 | GGAACAUUACAAAAGCUCUTT against Slfn1 | inactive: -0.872
33 | CCGACAUUCAACAAGAUUUTT against Mta1 | inactive: -0.092
34 | GCUCGGAUUUCCUACUCACTT against Agps | inactive: -0.493
35 | GGUUGAUUUAAACAUUGGATT against Pcdhgb2 | inactive: 1.83
36 | GGUGCUGCUGAGAUUUUUCTT against Pxt1 | inactive: 0.555
37 | CGACCAGCCAUGGUACAAATT against Ptprd | inactive: -0.83
38 | CCAUUGAGGUAAUGUUUGATT against Rmnd1 | inactive: 0.978
39 | GGAAAUCCUUACUAUGCAUTT against Enam | inactive: 0.406
40 | GGAAAAGGGCAAGCACAUGTT against Naa10 | inactive: 0.833
41 | GGAGCUGAUGGUUGAAUGUTT against Ehbp1 | inactive: 0.177
42 | CGUGUUAGGUCUUCCUCCUTT against Ptges3l | inactive: -1.49
43 | GCUGUUAAAACUCUCGUUATT against Pdk3 | active: 2.02
44 | GGACAAUGUAGUUUAUCACTT against Cdnf | inactive: -1.72

Another view of some results above.
Row,Sequence,z-score
11,GGGCCAGUACCAGAAAGAATT against Xcl1,inactive: -0.0888
12,GCCCAUGUGACGAUAACUGTT against Ociad1,inactive: 0.892
13,GGGAGGAUUCAUGUUGUGUTT against Morc1,inactive: 1.19
14,CCGAUUUGAUACCCUGGAATT against Tfpi,inactive: -0.695
15,GGGCGAGCAGUUUGUGUUUTT against Crybb2,inactive: 1.58
16,CCUUUAACCCUCAACUCAATT against Selenos,inactive: -0.251

(continued)

Row | Sequence | z-score
45 | CCAUGUAAGUUAUAAGUGUTT against Nxph1 | inactive: -0.661
46 | CCUACCUGAUCGUUCCUUATT against Arsb | inactive: 0.37
47 | GCCUCAAAUAUCGGGCCAUTT against Rapsn | inactive: 1.64
48 | GGAAGAUUUCUUCACCGACTT against Ptf1a | inactive: 1.4
49 | GCAUAUUAGUGCUUUUCCCTT against Olfr78 | inactive: 0.0338
50 | GGGAAUCGGACCAACUUACTT against Adssl1 | active: 3.64
51 | GGACUUCCCGAACUACAUATT against Zfp52 | inactive: 0.0339
52 | GGAUCUGAAGAUGAUGAACTT against Ces2e | inactive: 0.0623
53 | GGCAGAGUGCUGGAUUUGUTT against 4933409G03Rik | inactive: 0.955
54 | GGUACUUUUACUCCCGAAGTT against Lgals3bp | active: -2.05
55 | CCCAAGGUACAUUUUUCAATT against Mab21l2 | inactive: 0.933
56 | GGAAGAGGAAUAUUACCAGTT against Marveld3 | active: -2.16
57 | GCGCGCAUUAACUACACGUTT against Zfp82 | inactive: 1.88
58 | GGUGCUCAAUAAAUGGAAUTT against Dcakd | inactive: 0.314
59 | CGUAGGACAAAUUAUACCATT against Gria3 | inactive: 0.502
60 | CGGAACUACCGCUUCUUUUTT against Zdhhc18 | inactive: 0.0121
61 | GGAGCCAGGAAAAUUUAUGTT against Carm1 | inactive: -0.624
62 | CGGAAGAACUACAAGUCGATT against Sipa1l3 | active: 2.09
63 | GCUAUAGAUUCCUCUGCCATT against Olfr1098 | inactive: -0.525
64 | CCGCUUGGGAUUAGCUAUGTT against Olfr543 | inactive: -0.11
65 | GGGCUAUAUGGAUUUAAUGTT against Txnl1 | inactive: 1.97
66 | GCAAUUUUAGUUGGUGGAATT against Ddx24 | inactive: -0.112

Row | Sequence | z-score
67 | CCCAUGACUUUAGAAUAGGTT against Kcnf1 | inactive: -0.658
68 | CCUCGUUAUCCUCAUGGGATT against Alppl2 | inactive: 0.649
69 | CCUUGAAUUUAACAGGGAUTT against Shtn1 | inactive: -0.00497
70 | GGAGGCUGUGAAAGAAUCATT against Gzma | inactive: -0.848
71 | GGGUAUUUUUUUGUGGCUUTT against Nsg2 | inactive: 0.489
72 | CCCUUUACCCUACGCGUAUTT against Ifitm2 | inactive: 0.212
73 | GGAAAUUACAAGCUAGCAUTT against Dnajc7 | inactive: 1.29
74 | GCUGCUAAUGCUUGAUUAUTT against Il7r | inactive: 1.09
75 | CGUACAGAGACAUCUUGAUTT against Idnk | inactive: 1.06
76 | GCCGUGAAGAAAAUUUUGATT against Olfr270 | inactive: 0.17
77 | GGACGCAAUGGUGUCUUCUTT against Adamts16 | inactive: -0.789
78 | GGACCAUCUCUUUGAUUGGTT against Olfr424 | inactive: -1.12
79 | GCUCAUCGCUGAUUCGACATT against Zfp667 | inactive: -0.0832
80 | GGCUCUGGCAUUAAUGAACTT against Vnn1 | inactive: -0.912
81 | CCGCCUAAAUGACUUGACATT against Fbxw14 | inactive: -1.1
82 | GGCACAUUGUGGUGUCUUGTT against Pycr1 | inactive: -3e-05
83 | CGGAAUUUUAGGGAUAGGATT against Rcn1 | inactive: -0.155
84 | CCCAUUCAACUUUAGGCCCTT against Hdac7 | inactive: 0.0173
85 | GCUUCACAAGCAGUGUACUTT against Slc37a1 | inactive: -0.361
86 | GGAGACCUAGAUGCACUGATT against Arhgdig | inactive: -0.644
87 | GCAGAUGUUGCGUUUCCUGTT against Ggact | inactive: 0.0238
88 | GGCUUGGAUCUUGAGCAGATT against Magea6 | inactive: 0.819

Row | Sequence | z-score
89 | CCCUAGCGGAAAUUGUCAATT against Nono | inactive: 0.328
90 | GGCUCUGGAUUACAUAGCCTT against Actn2 | inactive: 0.0268
91 | GCAGACUUGGGUGUCUCUUTT against Fam167b | inactive: -0.174
92 | CCACGUUACAACAUCACCUTT against Hdac11 | inactive: -1.96
93 | GGGAUGGUUCCAUUACUUUTT against Rhcg | inactive: 0.934
94 | CCACCGACUUCUUUUACCCTT against Sephs2 | inactive: -0.165
95 | GGGUAGGUUGUGUUUGCAUTT against Synm | inactive: -0.846
96 | CCCUUAUUGCUAGACCUAGTT against Map3k11 | inactive: -1.13
97 | GCCCGAAGUCCAUGAUAUUTT against Ppm1a | inactive: 0.785
98 | CGAGACACGUAGUGAAAGATT against Chrna5 | inactive: 0.993
99 | GGUGCUAAUCAUCAUCAUGTT against Draxin | inactive: 0.547
100 | GGCUGACUUAUUUCAUUAATT against Dexi | inactive: 0.101
101 | GGUUUUGUCCAGAAGAAUATT against Kl | inactive: -0.574
102 | GCCUUGUGACAGCAUUAGUTT against Slc6a13 | inactive: -0.0361
103 | GAAAUCGGCUCAGACAUUUTT against Ssbp2 | inactive: -0.392
104 | GCUACACACGAUUUCAUUCTT against Dolpp1 | inactive: 0.549
105 | GGUCCUGUGAGUCAUUUGATT against Mrps34 | inactive: -0.191
106 | GGUAACUCAAUUUUGUGUUTT against Gcsam | inactive: 0.859
107 | GGUUGUGAAUGUAAGUGAGTT against Entpd1 | inactive: -0.787
